Data as given in PMC10651854.

Target: circHECTD1-encoded functional peptide 463aa (human (endogenous in GBM cells))
Assay: affinity purification with mass spectrometry; IP of 463aa combined with MS analysis; proteins separated by SDS-PAGE, bands cut out, timsTOF pro mass spectrometer

- binding: binds
B1: Nuclear receptor subfamily 2 group F member 1 (NR2F1) (protein, UniProt P10589 1-423)
chain: MAMVVSSWRDPQDDVAGGNPGGPNPAAQAARGGGGGAGEQQQQAGSGAPHTPQTPGQPGAPATPGTAGDKGQGPPGSGQSQQHIECVVCGDKSSGKHYGQFTCEGCKSFFKRSVRRNLTYTCRANRNCPIDQHHRNQCQYCRLKKCLKVGMRREAVQRGRMPPTQPNPGQYALTNGDPLNGHCYLSGYISLLLRAEPYPTSRYGSQCMQPNNIMGIENICELAARLLFSAVEWARNIPFFPDLQITDQVSLLRLTWSELFVLNAAQCSMPLHVAPLLAAAGLHASPMSADRVVAFMDHIRIFQEQVEKLKALHVDSAEYSCLKAIVLFTSDACGLSDAAHIESLQEKSQCALEEYVRSQYPNQPSRFGKLLLRLPSLRTVSSSVIEQLFFVRLVGKTPIETLIRDMLLSGSSFNWPYMSIQCS

Results are given in words; binding and its absence hold for the method and conditions named. In cells and extracts the contact can be indirect. These calls come from enrichment with a bait or labelling near it, and not all partners need be listed.
